Taken from: PubChem BioAssay AID1224830 (NIAID, 2016)
Aim: 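Host factors that control LPS-induced TNF expression in human macrophages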 (primary screen). System: human THP-1 monocytic leukaemia cells, TNF dual-luciferase reporter clone, PMA-differentiated to macrophage-like cells. Reagent: siRNA pool against human genes, 50 nM. Time to read-out: LPS for 4 h, given about 3 days after siRNA transfection. Treatment: bacterial LPS (TLR4 ligand), 10 ng/ml. Measurement: 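TNF firefly reporter luminescence divided by renilla, normalised to the plate median, then turned into a robust z-score for each replicate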. Direction: TNF reporter robust z-score: higher = stronger TNF reporter response to LPS. Hit rule: 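Each well counts as active if its z-score is over 2.8 or under -1.5; controls are left without a call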.
The deposit covers about 18,000 reagents; shown is a random part of them. About 2,900 of them (16%) were called active. 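Calls are made per well; low scores hint the gene aids the LPS response, high scores that it dampens it.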 Unmarked entries are inactive. Repeated entries: four replicate wells of each siRNA pool.

| target gene | PubChem SID | TNF reporter robust z-score |
| --- | --- | --- |
| RNF135 | SID315460294 | 1.11 |
| RNF135 | SID315460294 | -0.28 |
| RNF135 | SID315460294 | 1.08 |
| RNF135 | SID315460294 | 0.25 |
| RTL8A | SID315455653 | -0.77 |
| RTL8A | SID315455653 | -1.3 |
| RTL8A | SID315455653 | -1.36 |
| RTL8A | SID315455653 | -0.6 |
| ZNF211 | SID315454156 | -0.44 |
| ZNF211 | SID315454156 | -0.83 |
| ZNF211 | SID315454156 | -0.32 |
| ZNF211 | SID315454156 | -0.55 |
| NKX2-2 | SID315450256 | -0.47 |
| NKX2-2 | SID315450256 | -0.8 |
| NKX2-2 | SID315450256 | -0.26 |
| NKX2-2 | SID315450256 | -0.4 |
| OAZ1 | SID315450341 | 3.21 (active) |
| OAZ1 | SID315450341 | 0.8 |
| OAZ1 | SID315450341 | 3.54 (active) |
| OAZ1 | SID315450341 | 3.44 (active) |
| TEX12 | SID315458033 | -0.6 |
| TEX12 | SID315458033 | -0.4 |
| TEX12 | SID315458033 | -0.8 |
| TEX12 | SID315458033 | 1.66 |
| TRAP1 | SID315453843 | -0.84 |
| TRAP1 | SID315453843 | -0.08 |
| TRAP1 | SID315453843 | -0.39 |
| TRAP1 | SID315453843 | -0.02 |
| SESN3 | SID315462194 | -1.46 |
| SESN3 | SID315462194 | -1.1 |
| SESN3 | SID315462194 | -0.83 |
| SESN3 | SID315462194 | -1.27 |
| MIXL1 | SID315460112 | 0.11 |
| MIXL1 | SID315460112 | 2.4 |
| MIXL1 | SID315460112 | 1.44 |
| MIXL1 | SID315460112 | 1.29 |
| PRKCZ | SID315450814 | -0.43 |
| PRKCZ | SID315450814 | 0.83 |
| PRKCZ | SID315450814 | 0.81 |
| PRKCZ | SID315450814 | -0.32 |
| RMC1 | SID315456215 | -0.28 |
| RMC1 | SID315456215 | -0.21 |
| RMC1 | SID315456215 | 0.03 |
| RMC1 | SID315456215 | 0.62 |
| CFD | SID315448293 | 0.7 |
| CFD | SID315448293 | 1.23 |
| CFD | SID315448293 | -0.57 |
| CFD | SID315448293 | 0.24 |

Part of the list above in another layout.
target gene,PubChem SID,TNF reporter robust z-score
TRAP1,SID315453843,-0.08
TRAP1,SID315453843,-0.39
